These results are taken from publication PMC3492142.

Sequences of proteins named here, by UniProt entry; tags and fusion partners are left off. A change or cut given only in a name is not applied to a line headed by its entry. A line that says so, or that is headed by a name, gives the form on record, which may keep a tag or linker.
UniProt P08134: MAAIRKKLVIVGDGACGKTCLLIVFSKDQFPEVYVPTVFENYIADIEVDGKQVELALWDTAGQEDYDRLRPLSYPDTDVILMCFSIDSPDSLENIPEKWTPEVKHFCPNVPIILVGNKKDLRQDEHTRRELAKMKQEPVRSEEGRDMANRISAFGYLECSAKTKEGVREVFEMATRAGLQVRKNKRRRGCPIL
constitutively active form of RhoC (RhoC-V14) (P08134, form named): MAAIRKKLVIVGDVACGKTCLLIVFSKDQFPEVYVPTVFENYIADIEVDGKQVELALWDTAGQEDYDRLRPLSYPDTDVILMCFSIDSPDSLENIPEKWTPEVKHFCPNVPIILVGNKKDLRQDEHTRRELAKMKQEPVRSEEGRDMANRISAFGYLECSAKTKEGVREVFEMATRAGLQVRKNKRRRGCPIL
UniProt P46940: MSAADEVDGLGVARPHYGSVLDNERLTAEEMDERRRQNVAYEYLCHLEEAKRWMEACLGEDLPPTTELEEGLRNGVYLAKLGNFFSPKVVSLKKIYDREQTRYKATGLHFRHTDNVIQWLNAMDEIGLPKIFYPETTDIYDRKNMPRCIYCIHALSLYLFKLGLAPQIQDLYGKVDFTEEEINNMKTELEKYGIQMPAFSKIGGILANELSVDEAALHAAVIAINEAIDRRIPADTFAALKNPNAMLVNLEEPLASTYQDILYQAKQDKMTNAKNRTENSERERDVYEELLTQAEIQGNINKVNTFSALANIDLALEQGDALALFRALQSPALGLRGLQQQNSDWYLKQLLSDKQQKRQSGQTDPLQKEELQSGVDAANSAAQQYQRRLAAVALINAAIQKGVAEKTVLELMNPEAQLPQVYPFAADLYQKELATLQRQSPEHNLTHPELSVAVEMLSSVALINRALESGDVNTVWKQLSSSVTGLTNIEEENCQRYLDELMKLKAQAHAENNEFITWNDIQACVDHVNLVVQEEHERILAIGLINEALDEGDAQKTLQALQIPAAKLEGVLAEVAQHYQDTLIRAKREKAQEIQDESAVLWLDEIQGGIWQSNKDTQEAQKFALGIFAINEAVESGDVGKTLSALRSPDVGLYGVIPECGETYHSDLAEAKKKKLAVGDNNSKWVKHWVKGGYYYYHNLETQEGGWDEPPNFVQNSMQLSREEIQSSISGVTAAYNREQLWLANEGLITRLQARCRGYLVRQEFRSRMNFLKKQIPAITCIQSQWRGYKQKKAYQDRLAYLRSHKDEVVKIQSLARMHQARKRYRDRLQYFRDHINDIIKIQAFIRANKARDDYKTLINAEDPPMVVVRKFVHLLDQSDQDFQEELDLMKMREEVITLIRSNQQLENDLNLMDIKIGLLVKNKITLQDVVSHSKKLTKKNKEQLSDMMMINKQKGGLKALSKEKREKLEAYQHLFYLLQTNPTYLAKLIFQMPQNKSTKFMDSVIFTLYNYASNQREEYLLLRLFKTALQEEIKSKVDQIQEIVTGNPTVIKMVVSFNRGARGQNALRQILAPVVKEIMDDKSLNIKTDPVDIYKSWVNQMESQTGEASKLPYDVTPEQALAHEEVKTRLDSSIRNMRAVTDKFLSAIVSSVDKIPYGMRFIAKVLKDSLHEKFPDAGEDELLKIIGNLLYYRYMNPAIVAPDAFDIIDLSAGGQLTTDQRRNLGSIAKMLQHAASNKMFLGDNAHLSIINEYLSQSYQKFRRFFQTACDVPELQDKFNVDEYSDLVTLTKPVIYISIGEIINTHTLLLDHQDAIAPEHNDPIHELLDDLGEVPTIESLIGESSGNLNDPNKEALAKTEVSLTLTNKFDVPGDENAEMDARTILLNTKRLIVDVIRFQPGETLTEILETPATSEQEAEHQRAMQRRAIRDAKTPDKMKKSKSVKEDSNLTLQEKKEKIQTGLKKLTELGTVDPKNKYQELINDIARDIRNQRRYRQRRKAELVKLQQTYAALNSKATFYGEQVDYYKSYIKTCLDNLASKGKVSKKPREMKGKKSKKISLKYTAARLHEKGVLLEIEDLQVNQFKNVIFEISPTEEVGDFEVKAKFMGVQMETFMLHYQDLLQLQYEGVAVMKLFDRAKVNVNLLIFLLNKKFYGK

These are yes or no findings as the source states them, for the method shown. In cells and extracts the contact can be indirect. Some results given as binding are weak or reduced against the parent protein; the word gives no strength.

This assay concerns the target constitutively active form of RhoC (RhoC-V14) (UniProt P08134). Put plainly: co-IP; BGC-823 and COS-7 cells co-infected with Ad-IQGAP1 or Ad-IQGAP1-C and Ad-RhoC-V14 for 48 h; lysed with RIPA buffer; immunoprecipitation with anti-RhoC or anti-IQGAP1 antibody or isotype-matched IgG; Western blot with anti-IQGAP1 or anti-RhoC antibody.

Turning to “full length IQGAP1 (IQ-domain GTPase-activating protein 1) (from UniProt P46940 1-1657)”, the binding result is recorded as “binds”.
